Chains of the proteins cited; added tags and fusions are not shown.
UniProt O09106: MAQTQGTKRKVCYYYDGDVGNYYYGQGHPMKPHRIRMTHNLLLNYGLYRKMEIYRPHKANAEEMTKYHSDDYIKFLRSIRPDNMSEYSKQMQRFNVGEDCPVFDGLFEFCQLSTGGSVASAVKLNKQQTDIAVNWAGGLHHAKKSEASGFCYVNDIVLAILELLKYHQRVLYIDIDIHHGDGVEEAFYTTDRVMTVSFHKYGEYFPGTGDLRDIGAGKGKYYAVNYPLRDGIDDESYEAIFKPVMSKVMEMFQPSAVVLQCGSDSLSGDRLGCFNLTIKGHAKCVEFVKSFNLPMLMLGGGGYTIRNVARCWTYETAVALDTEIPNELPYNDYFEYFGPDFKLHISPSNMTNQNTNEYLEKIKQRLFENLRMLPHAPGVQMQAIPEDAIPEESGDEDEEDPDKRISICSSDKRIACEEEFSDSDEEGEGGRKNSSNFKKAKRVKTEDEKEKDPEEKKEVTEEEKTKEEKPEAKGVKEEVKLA
UniProt P97496: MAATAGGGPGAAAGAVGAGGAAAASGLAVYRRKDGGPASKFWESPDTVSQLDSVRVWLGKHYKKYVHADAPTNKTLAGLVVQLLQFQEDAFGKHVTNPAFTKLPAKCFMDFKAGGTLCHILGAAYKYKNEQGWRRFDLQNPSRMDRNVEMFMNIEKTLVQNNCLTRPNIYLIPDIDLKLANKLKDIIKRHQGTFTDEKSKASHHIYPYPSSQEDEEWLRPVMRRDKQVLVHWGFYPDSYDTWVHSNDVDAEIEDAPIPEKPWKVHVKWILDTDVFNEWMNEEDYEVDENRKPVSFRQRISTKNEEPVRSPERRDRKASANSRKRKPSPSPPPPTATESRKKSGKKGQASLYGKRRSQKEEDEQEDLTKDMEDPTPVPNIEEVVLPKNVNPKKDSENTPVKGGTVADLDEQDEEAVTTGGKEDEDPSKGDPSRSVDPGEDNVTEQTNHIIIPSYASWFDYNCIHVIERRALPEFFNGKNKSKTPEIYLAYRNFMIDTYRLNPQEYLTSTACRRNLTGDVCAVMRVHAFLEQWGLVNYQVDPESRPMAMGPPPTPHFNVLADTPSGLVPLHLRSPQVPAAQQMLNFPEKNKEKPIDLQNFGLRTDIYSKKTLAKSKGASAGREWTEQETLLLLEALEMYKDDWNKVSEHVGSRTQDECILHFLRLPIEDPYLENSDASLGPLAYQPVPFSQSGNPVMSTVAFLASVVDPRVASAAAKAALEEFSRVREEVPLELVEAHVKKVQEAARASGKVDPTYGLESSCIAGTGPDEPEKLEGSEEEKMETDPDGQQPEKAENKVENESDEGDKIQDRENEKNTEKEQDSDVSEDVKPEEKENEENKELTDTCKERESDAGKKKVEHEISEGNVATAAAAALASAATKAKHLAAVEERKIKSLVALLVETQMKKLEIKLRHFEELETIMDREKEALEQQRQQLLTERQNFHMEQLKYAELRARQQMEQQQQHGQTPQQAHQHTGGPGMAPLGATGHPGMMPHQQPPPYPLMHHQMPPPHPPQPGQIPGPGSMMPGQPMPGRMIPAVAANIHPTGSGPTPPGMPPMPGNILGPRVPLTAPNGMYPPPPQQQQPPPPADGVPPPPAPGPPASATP
UniProt O54941: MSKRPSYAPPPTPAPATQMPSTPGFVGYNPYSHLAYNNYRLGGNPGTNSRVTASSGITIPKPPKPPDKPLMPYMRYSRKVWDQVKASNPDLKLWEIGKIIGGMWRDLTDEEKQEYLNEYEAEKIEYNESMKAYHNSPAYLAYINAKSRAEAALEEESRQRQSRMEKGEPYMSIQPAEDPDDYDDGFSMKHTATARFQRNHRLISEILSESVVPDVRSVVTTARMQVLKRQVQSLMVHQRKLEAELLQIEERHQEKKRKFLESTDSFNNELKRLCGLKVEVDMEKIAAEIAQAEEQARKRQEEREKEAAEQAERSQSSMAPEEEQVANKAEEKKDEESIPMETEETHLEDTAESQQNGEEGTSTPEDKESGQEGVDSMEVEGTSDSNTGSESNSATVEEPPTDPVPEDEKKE

According to paper PMC11059408, “Atypical heat shock transcription factor HSF5 is critical for male meiotic prophase under non-stress conditions” (Nature Communications, 2023):

Biological target: T1, HSF5 (endogenous, mouse testis) (mouse (endogenous in testis)) (UniProt Q5ND04)
T1 sequence: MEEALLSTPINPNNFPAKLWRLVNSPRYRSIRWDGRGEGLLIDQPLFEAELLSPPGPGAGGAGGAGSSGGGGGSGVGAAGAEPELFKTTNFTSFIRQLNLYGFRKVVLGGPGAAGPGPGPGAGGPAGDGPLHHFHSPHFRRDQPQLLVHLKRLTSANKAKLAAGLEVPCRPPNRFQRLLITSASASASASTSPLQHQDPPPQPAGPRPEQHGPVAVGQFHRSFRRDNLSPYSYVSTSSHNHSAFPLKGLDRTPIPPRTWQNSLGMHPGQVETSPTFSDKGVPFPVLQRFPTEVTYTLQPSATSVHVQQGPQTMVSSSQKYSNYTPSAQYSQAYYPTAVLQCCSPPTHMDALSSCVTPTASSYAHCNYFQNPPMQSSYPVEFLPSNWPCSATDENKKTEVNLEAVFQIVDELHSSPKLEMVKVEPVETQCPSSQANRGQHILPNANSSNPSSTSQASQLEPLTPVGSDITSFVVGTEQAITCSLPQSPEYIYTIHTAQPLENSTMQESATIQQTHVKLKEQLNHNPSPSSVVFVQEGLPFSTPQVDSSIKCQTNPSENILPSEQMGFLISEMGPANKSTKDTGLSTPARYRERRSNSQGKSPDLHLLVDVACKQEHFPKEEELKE
Assay: affinity purification with mass spectrometry; endogenous HSF5 immunoprecipitated from mouse testis extracts with anti-HSF5-C, HSF5-N1 and HSF5-N2 antibodies crosslinked to protein A-Dynabeads; control IgG; washed with low salt extraction buffer; LC-MS/MS

| Substance | binding |
| --- | --- |
| HDAC1 (from UniProt O09106 1-482) | binds |
| SMARCC1 (from UniProt P97496 1-1104) | binds |
| SMARCE1 (from UniProt O54941 1-411) | binds |

No constants are given. Whether binding was seen depends on the method and setting. In cells and extracts the contact can be indirect. Here binding means that the protein was enriched with, or labelled near, the bait; the list need not be complete.
